The results in this text go back to PMC4499774.

Chains of the proteins cited; added tags and fusions are not shown. Lines headed by an entry give the natural chain unless they say otherwise; changes in a name come on top.
UniProt O85041: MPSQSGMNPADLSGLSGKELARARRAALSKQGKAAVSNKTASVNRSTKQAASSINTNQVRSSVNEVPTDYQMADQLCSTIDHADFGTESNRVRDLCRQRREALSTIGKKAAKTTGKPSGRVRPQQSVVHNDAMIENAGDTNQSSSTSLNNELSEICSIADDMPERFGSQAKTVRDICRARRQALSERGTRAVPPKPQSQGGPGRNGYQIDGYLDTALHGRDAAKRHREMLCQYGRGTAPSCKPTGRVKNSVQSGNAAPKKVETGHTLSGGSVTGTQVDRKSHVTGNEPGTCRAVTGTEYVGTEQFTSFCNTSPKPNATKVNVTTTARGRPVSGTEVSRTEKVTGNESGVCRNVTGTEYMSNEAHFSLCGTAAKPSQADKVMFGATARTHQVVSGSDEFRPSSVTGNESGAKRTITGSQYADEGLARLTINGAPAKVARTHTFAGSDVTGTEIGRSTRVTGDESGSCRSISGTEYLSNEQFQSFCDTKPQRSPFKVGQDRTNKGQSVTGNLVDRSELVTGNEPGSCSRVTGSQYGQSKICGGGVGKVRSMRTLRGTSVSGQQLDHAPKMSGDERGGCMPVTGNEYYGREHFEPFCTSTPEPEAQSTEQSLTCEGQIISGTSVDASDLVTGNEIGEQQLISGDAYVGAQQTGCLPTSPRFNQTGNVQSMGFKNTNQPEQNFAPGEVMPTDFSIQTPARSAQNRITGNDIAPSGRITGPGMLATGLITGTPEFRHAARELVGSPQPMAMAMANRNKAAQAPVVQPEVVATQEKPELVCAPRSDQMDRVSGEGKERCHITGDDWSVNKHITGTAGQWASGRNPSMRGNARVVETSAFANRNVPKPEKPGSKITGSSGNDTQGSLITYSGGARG

The target of this experiment is SPA-tagged Hnea CsoS2B (full length CsoS2 with C-terminal SPA tag, in HnSPAS2 mutant carboxysomes) (Halothiobacillus neapolitanus) (UniProt O85041). The experiment can be described thus: co-IP; purified HnSPAS2 mutant carboxysomes bound to agarose beads conjugated with α-FLAG antibodies, eluted with 100 mM glycine buffer, pH 2.5; eluate analysed by SDS-PAGE and densitometry; the trapped carboxysomes were taken to be intact.

Results are given in words; binding and its absence hold for the method and conditions named. In cells and extracts the contact can be indirect. A result given as binding can be weak or reduced; the word gives no strength.

With “Hnea CsoS2A (short form of CsoS2, in HnSPAS2 mutant carboxysomes) (from UniProt O85041-2)”, the binding result was “binds”.
